In patent US20230235004A1 one finds binding data, which are given here for 15 molecules.

For this test, the target named is cyno MAdCAM protein (cyno). The test is described as follows: ELISA.

Substitutions are numbered along the chain they refer to. No constants are given. Whether binding was seen depends on the method and setting. Binding calls can cover weak binding; strength is not graded here.

B1: MAdCAM antibody Table 1 clone 39 (scFv)
scFv: QVQLVQSGAEVKKPGASVKVSCKASGYTFTSYYMHWVRQAPGQGLEWMGWMNPNSGNTGYAQKFQGRVTMTRDTSTSTVYMELSSLRSEDTAVYYCARDLGYYDSSGYFGAFDIWGQGTTVTVSSGGGGSGGGGSGGGGSGGGGSDIQMTQSPSSLSASVGDRVTITCQSSEDISSSLNWYQQKPGKAPKLLIYAASSLQIGVPSRFSGSGSGTDFTLTISSLQPEDFATYYCQQTYSTPYTFGQGTKVEIK
For B1, the binding entry is listed as “binds”.

B2: MAdCAM antibody Table 1 clone 33 (scFv)
scFv: QVQLVQSGAEVKKPGASVKVSCKASGYTFTSYGISWVRQAPGQGLEWMGWMHPKSGDTGLTQKFQGRVTMTRDTSTSTVYMELSSLRSEDTAVYYCARDTPYYYYGMDVWGQGTTVTVSSGGGGSGGGGSGGGGSGGGGSDIQMTQSPSSLSASVGDRVTITCRASQSISSWLAWYQQKPGKAPKLLIYAASSLQSGVPSRFSGSGSGTDFTLTISSLQPEDFATYYCQQSYSVPITFGQGTKVEIK
Take B2: the binding result is “binds”.

B3: MAdCAM antibody Table 1 clone 27 (scFv)
scFv: QVQLVQSGAEVKKPGASVKVSCKASGYTFTGYYIHWVRQAPGQGLEWMGWMNPNSGNTGYAQKFQGRVTMTRDTSTSTVYMELSSLRSEDTAVYYCARDPGFLGYCSGGSCYDGWFDPWGQGTLVTVSSGGGGSGGGGSGGGGSGGGGSDIQMTQSPSSLSASVGDRVTITCRASQSISSYLHWYQQKPGKAPKLLIYAASSLQSGVPSRFSGSGSGTDFTLTISSLQPEDFATYYCQQSYTAPYTFGQGTKLEIK
As to B3, the binding result is on record as “binds”.

B4: MAdCAM antibody Table 1 clone 17 (scFv)
scFv: EVQLLESGGGLVQPGGSLRLSCAASGFTFSDSAMHWVRQAPGKGLEWVSAISGSGSTIYYADSVKGRFTISRDNSKNTLYLQMNSLRAEDTAVYYCVSDIAVAGHWYFDLWGRGTLVTVSSGGGGSGGGGSGGGGSGGGGSDIQMTQSPSSLSASVGDRVTITCRASQSISTFLNWYQQKPGKAPKLLIYAASRLEGGVPSRFSGSGSGTDFTLTISSLQPEDFATYYCQQANSFPLTFGPGTKVDIK
Take B4: the binding entry is reported as “binds”.

B5: MAdCAM antibody Table 1 clone 29 (scFv)
scFv: QVQLVQSGAEVKKPGASVKVSCKASGYTFTSYYMHWVRQAPGQGLEWMAWMNPNSGNTGYAQKFQGRVTMTRDTSTSTVYMELSSLRSEDTAVYYCARDYDFWSGSLGYWGQGTLVTVSSGGGGSGGGGSGGGGSGGGGSDIQMTQSPSSLSASVGDRVTITCRASQGISNYLAWYQQKPGKAPKLLIYAASSLQSGVPSRFSGSGSGTDFTLTISSLQPEDFATYYCQQSYSTPWTFGQGTKVEIK
With B5, the binding entry is on record as “binds”.

B6: MAdCAM antibody Table 1 clone 40 (scFv)
scFv: QVQLVQSGAEVKKPGASVKVSCKASGYTFTSYGISWVRQAPGQGLEWMGIINPRGGSTIFAQKFQGRVTMTRDTSTSTVYMELSSLRSEDTAVYYCARGTRSSGWYGWFDPWGQGTLVTVSSGGGGSGGGGSGGGGSGGGGSDIQMTQSPSSLSASVGDRVTITCRASQGIGNWLAWYQQKPGKAPKLLIYAASNLETGVPSRFSGSGSGTDFTLTISSLQPEDFATYYCQQIHSYPLTFGGGTKVEIK
Consider B6, for which the binding result was “binds”.

B7: MAdCAM antibody Table 1 clone 16 (scFv)
scFv: EVQLLESGGGLVQPGGSLRLSCAASGFTFEDYAMHWVRQAPGKGLEWVSYLNSDGGSTSYADSVKGRFTISRDNSKNTLYLQMNSLRAEDTAVYYCAKDYCTNGVCAFDYWGQGTLVTVSSGGGGSGGGGSGGGGSGGGGSDIQMTQSPSSLSASVGDRVTITCRASQSISTYLNWYQQKPGKAPKLLIYDASNLETGVPSRFSGSGSGTDFTLTISSLQPEDFATYYCQQSYTIPITFGQGTRLEIK
Turning to B7, the binding entry is reported as “binds”.

B8: MAdCAM antibody Table 1 clone 25 (scFv)
scFv: QVQLVQSGAEVKKPGASVKVSCKASGYTLTTWYMYWVRQAPGQGLEWMGWINPNRGATNYAQKFQGRVTMTRDTSTSTVYMELSSLRSEDTAVYYCAKGDLWGAMDVWGQGTLVTVSSGGGGSGGGGSGGGGSGGGGSDIQMTQSPSSLSASVGDRVTITCRASDNIGSWLAWYQQKPGKAPKLLIYAASSLQSGVPSRFSGSGSGTDFTLTISSLQPEDFATYYCQQGYSTPPTFGQGTKVEIK
With B8, the binding entry is given as “binds”.

B9: MAdCAM antibody Table 1 clone 26 (scFv)
scFv: B8 scFv with L113T
As to B9, the binding entry was “binds”.

B10: MAdCAM antibody Table 1 clone 30 (scFv)
scFv: B8 scFv
On to B10, for which the binding entry is on record as “binds”.

B11: MAdCAM antibody Table 1 clone 31 (scFv)
scFv: QVQLVQSGAEVKKPGASVKVSCKASGYTFTSYYMHWVRQAPGQGLEWMGIINPSGGSTSYAQKFQGRVTMTRDTSTSTVYMELSSLRSEDTAVYYCARDTGYSYGRYYYYGMDVWGQGTLVTVSSGGGGSGGGGSGGGGSGGGGSDIQMTQSPSSLSASVGDRVTITCRASQSIGRWLAWYQQKPGKAPKLLIYDASNLQSGVPSRFSGSGSGTDFTLTISSLQPEDFATYYCQQSYSIPITFGQGTKVEIK
Take B11: the binding entry is “binds”.

B12: MAdCAM antibody Table 1 clone 36 (scFv)
scFv: B11 scFv with S31G, Y32H, L120T, Q245G
In the case of B12, the binding result was “binds”.

B13: MAdCAM antibody Table 1 clone 21 (scFv)
scFv: EVQLLESGGGLVQPGGSLRLSCAASGFTFSNAWMSWVRQAPGKGLEWVSTIVGNGGATYYADSVKGRFTISRDNSKNTLYLQMNSLRAEDTAVYYCARDNPLRWQGMDVWGQGTLVTVSSGGGGSGGGGSGGGGSGGGGSDIQMTQSPSSLSASVGDRVTITCRASQDISNYLNWYQQKPGKAPKLLIYAASSLQSGVPSRFSGSGSGTDFTLTISSLQPEDFATYYCQQSYSIPPTFGPGTKVDIK
As to B13, the binding entry is reported as “binds”.

B14: MAdCAM antibody Table 1 clone 35 (scFv)
scFv: EVQLLESGGGLVQPGGSLRLSCAASGFSFSSYTMNWVRQAPGKGLEWVSFITSSSRTIYYADSVKGRFTISRDNSKNTLYLQMNSLRAEDTAVYYCARDRRGDYGDSWYFDLWGRGTLVTVSSGGGGSGGGGSGGGGSGGGGSEIVMTQSPATLSVSPGERATLSCRASQSVRNYLAWYQQKPGQAPRLLIYGASTRATGIPARFSGSGSGTEFTLTISSLQSEDFAVYYCQQYGSSPLTFGGGTKVEIK
Regarding B14, the binding result is “binds”.

B15: MAdCAM antibody Table 1 clone 38 (scFv)
scFv: EVQLLESGGGLVQPGGSLRLSCAASGFTFGSYSMSWVRQAPGKGLEWVSAIGTGGGTYYADSVKGRFTISRDNSKNTLYLQMNSLRAEDTAVYYCAKGTPYYYYYGMDVWGQGTMVTVSSGGGGSGGGGSGGGGSGGGGSDIQMTQSPSSLSASVGDRVTITCRASQPLSNWLAWYQQKPGKAPKLLIYAASSLQSGVPSRFSGSGSGTDFTLTISSLQPEDFATYYCQQAISFPLTFGGGTKVEIK
Take B15: the binding entry was “binds”.
